{"source": "paper doi:10.1101/339499", "target": "T1, Paf1-HA (yeast) (UniProt P38351)", "T1 sequence": "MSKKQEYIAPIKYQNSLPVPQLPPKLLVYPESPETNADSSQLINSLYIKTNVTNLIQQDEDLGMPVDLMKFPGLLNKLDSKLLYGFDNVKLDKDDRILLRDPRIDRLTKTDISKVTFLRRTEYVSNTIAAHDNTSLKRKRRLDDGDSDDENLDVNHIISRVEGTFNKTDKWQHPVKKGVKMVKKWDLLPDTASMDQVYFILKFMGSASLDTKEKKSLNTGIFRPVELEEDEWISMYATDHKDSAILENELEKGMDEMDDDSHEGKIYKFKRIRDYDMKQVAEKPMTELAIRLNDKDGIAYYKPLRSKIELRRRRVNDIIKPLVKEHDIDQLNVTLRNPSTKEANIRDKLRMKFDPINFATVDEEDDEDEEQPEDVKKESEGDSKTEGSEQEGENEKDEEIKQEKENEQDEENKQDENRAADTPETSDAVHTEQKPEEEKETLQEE", "experiment": "co-IP", "note": "Results are given in words; binding and its absence hold for the method and conditions named. Binding seen in cells or lysates may run through a third protein. Some binding calls cover weakened binding; strength is not graded here. Sequences can lack the tags named with a protein."}
{"binder": "Rpc128-Flag (pol III subunit Rpc128, FLAG-tagged) (protein, UniProt P22276 1-1149) MVAATKRRKTHIHKHVKDEAFDDLLKPVYKGKKLTDEINTAQDKWHLLPAFLKVKGLVKQHLDSFNYFVDTDLKKIIKANQLILSDVDPEFYLKYVDIRVGKKSSSSTKDYLTPPHECRLRDMTYSAPIYVDIEYTRGRNIIMHKDVEIGRMPIMLRSNKCILYDADESKMAKLNECPLDPGGYFIVNGTEKVILVQEQLSKNRIIVEADEKKGIVQASVTSSTHERKSKTYVITKNGKIYLKHNSIAEEIPIAIVLKACGILSDLEIMQLVCGNDSSYQDIFAVNLEESSKLDIYTQQQALEYIGAKVKTMRRQKLTILQEGIEAIATTVIAHLTVEALDFREKALYIAMMTRRVVMAMYNPKMIDDRDYVGNKRLELAGQLISLLFEDLFKKFNNDFKLSIDKVLKKPNRAMEYDALLSINVHSNNITSGLNRAISTGNWSLKRFKMERAGVTHVLSRLSYISALGMMTRISSQFEKSRKVSGPRALQPSQFGMLCTADTPEGEACGLVKNLALMTHITTDDEEEPIKKLCYVLGVEDITLIDSASLHLNYGVYLNGTLIGSIRFPTKFVTQFRHLRRTGKVSEFISIYSNSHQMAVHIATDGGRICRPLIIVSDGQSRVKDIHLRKLLDGELDFDDFLKLGLVEYLDVNEENDSYIALYEKDIVPSMTHLEIEPFTILGAVAGLIPYPHHNQSPRNTYQCAMGKQAIGAIAYNQFKRIDTLLYLMTYPQQPMVKTKTIELIDYDKLPAGQNATVAVMSYSGYDIEDALVLNKSSIDRGFGRCETRRKTTTVLKRYANHTQDIIGGMRVDENGDPIWQHQSLGPDGLGEVGMKVQSGQIYINKSVPTNSADAPNPNNVNVQTQYREAPVIYRGPEPSHIDQVMMSVSDNDQALIKVLLRQNRRPELGDKFSSRHGQKGVCGIIVKQEDMPFNDQGIVPDIIMNPHGFPSRMTVGKMIELISGKAGVLNGTLEYGTCFGGSKLEDMSKILVDQGFNYSGKDMLYSGITGECLQAYIFFGPIYYQKLKHMVLDKMHARARGPRAVLTRQPTEGRSRDGGLRLGEMERDCVIAYGASQLLLERLMISSDAFEVDVCDKCGLMGYSGWCTTCKSAENIIKMTIPYAAKLLFQELLSMNIAPRLRLEDIFQQ", "values": [{"measurement": "binding", "value": "binds"}]}
